Measured values published in US7935832B2, “Pyrrole and isoindole carboxamide derivatives as P2X7 modulators” (Glaxo Group Limited, priority 2007, dated 2011).
Some of these results come from one statement about several compounds together.

Columns and labels:
[1] = biological target: T1, human recombinant P2X7 receptors (Homo sapiens, UniProt Q99572); experiment: Ethidium Accumulation Assay; type: cell-based; settings: HEK293 cells expressing human recombinant P2X7; 1 mM ATP, 100 μM ethidium; 30 min preincubation at room temperature
T1 construct: expressed in transfected cells; host or cells: HEK293
T1 sequence (Q99572 1-595): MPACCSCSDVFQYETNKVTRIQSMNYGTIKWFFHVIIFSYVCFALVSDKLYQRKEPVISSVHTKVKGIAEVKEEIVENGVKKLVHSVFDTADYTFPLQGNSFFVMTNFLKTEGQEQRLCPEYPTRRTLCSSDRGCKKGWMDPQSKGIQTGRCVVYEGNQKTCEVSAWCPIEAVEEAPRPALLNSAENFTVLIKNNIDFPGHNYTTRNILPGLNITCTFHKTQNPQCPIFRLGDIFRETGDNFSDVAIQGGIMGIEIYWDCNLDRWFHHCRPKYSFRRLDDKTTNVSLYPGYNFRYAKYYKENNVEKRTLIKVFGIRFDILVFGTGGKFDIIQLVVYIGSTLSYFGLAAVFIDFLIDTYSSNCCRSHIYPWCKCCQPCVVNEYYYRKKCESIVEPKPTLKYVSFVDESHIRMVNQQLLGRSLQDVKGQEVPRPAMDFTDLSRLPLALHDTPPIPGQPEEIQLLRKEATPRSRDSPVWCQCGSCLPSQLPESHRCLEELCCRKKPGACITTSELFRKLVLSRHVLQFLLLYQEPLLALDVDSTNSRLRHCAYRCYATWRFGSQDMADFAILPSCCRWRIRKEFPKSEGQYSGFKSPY
Procedure: Studies were performed using NaCl assay buffer of the following composition (in mM): 140 mM NaCl, HEPES 10, N-methyl-D-glucamine 5, KCl 5.6, D-glucose 10, CaCl2 0.5 (pH 7.4). HEK293 cells, expressing human recombinant P2X7 receptors, were grown in poly-L-lysine pretreated 96 well plates for 18-24 h. (The cloning of the human P2X7 receptor is described in U.S. Pat. No. 6,133,434). The cells were washed twice with 350 μl of assay buffer before addition of 50 μl of antagonist. The cells were then incubated at room temperature (19-21° C.) for 30 min before addition of ATP and ethidium (100 μM final assay concentration). The ATP concentration was chosen to be close to the EC80 for the receptor type and was 1 mM for studies on the human P2X7 receptor. Incubations were continued for 8 or 16 min and were terminated by addition of 25 μl of 1.3M sucrose containing 5 mM of the P2X7 receptor antagonist reactive black 5 (Aldrich). Cellular accumulation of ethidium was determined by measuring fluorescence (excitation wavelength of 530 nm and emission wavelength of 620 nm) from below the plate with a Canberra Packard Fluorocount (Pangbourne, UK). Antagonist pIC50 values for blocking ATP responses were determined using iterative curve fitting techniques.

[2] = biological target: T1, human recombinant P2X7 receptors; experiment: Fluorescent Imaging Plate Reader (FLIPR) Ca Assay; type: cell-based; settings: HEK293 cells expressing human recombinant P2X7; 60 μM BzATP; Fluo4; 30 min preincubation at room temperature

SMILES	Antagonist pIC50 for blocking ATP responses (cellular accumulation of ethidium) [1]	Antagonist pIC50 for blocking BzATP responses (intracellular calcium increase) [2]
CCN1C(=O)c2ccccc2C1C(=O)NCc1ccc(F)cc1Cl (stereo not shown) [Example 3, N-[(2-chloro-4-fluorophenyl)methyl]-2-ethyl-3-oxo-2,3-dihydro-1H-isoindole-1-carboxamide]		> 4.7
CCN1C(=O)c2ccccc2C1C(=O)NCc1cccc(C(F)(F)F)c1Cl (stereo not shown) [Example 4, N-{[2-chloro-3-(trifluoromethyl)phenyl]methyl}-2-ethyl-3-oxo-2,3-dihydro-1H-isoindole-1-carboxamide]	> 5.5	> 4.7
CN1C(=O)c2ccccc2C1C(=O)NCc1cccc(C(F)(F)F)c1Cl (stereo not shown) [Example 7, N-{[2-chloro-3-(trifluoromethyl)phenyl]methyl}-2-methyl-3-oxo-2,3-dihydro-1H-isoindole-1-carboxamide]	> 5.5	> 4.7

Results, then the compound that gave them:

Antagonist pIC50 for blocking ATP responses (cellular accumulation of ethidium) [1]	Antagonist pIC50 for blocking BzATP responses (intracellular calcium increase) [2]	SMILES
> 5.5	> 4.7	CC1=CC(=O)N(C2CC2)C1C(=O)NCc1ccc(Cl)cc1Cl (stereo not shown) [Example 1, 1-cyclopropyl-N-[(2,4-dichlorophenyl)methyl]-3-methyl-5-oxo-2,5-dihydro-1H-pyrrole-2-carboxamide]
> 5.5	> 4.7	CCN1C(=O)c2ccccc2C1C(=O)NCc1ccc(Cl)cc1Cl (stereo not shown) [Example 2, N-[(2,4-dichlorophenyl)methyl]-2-ethyl-3-oxo-2,3-dihydro-1H-isoindole-1-carboxamide]
> 5.5	> 4.7	CN1C(=O)c2ccccc2C1C(=O)NCc1ccc(Cl)cc1Cl (stereo not shown) [Example 5, N-[(2,4-dichlorophenyl)methyl]-2-methyl-3-oxo-2,3-dihydro-1H-isoindole-1-carboxamide]
> 5.5	> 4.7	CN1C(=O)c2ccccc2C1C(=O)NCc1ccc(F)cc1Cl (stereo not shown) [Example 6, N-[(2-chloro-4-fluorophenyl)methyl]-2-methyl-3-oxo-2,3-dihydro-1H-isoindole-1-carboxamide]
